Laboratory results published in the supplement of paper PMC10849652.
The list shows a part of the results.

The chains behind the UniProt entries cited, without tags or fusion partners. Where a name states a change or a piece, a line headed by the entry shows the natural chain unless it says otherwise.
UniProt Q6P1X5, whole entry, looked up: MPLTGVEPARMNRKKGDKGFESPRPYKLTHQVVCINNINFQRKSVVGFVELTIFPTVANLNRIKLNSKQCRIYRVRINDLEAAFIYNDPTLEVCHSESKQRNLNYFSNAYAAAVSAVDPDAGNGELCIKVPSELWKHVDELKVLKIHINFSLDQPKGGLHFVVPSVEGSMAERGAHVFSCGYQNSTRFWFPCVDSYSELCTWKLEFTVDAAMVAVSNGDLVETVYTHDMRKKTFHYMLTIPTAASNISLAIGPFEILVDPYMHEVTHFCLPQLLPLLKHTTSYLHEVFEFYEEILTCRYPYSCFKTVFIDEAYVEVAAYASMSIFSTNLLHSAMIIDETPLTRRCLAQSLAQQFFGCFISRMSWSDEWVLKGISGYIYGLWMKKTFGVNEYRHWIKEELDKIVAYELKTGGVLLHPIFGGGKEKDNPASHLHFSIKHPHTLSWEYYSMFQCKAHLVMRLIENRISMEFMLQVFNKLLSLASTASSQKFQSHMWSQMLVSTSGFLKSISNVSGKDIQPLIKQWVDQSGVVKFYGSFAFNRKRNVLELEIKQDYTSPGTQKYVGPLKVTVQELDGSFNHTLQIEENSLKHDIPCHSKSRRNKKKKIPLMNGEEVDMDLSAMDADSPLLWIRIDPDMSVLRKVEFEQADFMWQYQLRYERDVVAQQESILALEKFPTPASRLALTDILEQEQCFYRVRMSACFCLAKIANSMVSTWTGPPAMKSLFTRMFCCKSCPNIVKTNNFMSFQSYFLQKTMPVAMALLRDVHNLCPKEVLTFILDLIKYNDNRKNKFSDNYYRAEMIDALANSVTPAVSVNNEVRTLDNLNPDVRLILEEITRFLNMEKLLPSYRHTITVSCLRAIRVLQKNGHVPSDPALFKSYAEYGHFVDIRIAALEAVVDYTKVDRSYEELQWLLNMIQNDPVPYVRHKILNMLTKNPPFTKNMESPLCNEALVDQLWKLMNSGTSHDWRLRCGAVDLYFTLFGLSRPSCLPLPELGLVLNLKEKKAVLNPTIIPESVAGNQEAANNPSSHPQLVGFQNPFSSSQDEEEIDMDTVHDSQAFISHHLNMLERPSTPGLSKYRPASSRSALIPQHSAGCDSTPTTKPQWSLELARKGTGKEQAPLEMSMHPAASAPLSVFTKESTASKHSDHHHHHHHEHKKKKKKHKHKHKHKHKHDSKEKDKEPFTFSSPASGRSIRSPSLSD
UniProt Q9Y2Z0: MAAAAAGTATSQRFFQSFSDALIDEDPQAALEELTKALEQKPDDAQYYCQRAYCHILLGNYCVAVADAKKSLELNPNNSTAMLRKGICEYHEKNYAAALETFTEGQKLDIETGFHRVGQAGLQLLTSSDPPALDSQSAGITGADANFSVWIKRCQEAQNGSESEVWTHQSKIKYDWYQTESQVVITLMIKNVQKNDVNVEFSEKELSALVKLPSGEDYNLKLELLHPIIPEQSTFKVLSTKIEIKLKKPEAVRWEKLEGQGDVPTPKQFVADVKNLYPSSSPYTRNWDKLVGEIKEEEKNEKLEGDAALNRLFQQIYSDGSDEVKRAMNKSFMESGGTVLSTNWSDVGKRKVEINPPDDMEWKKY
UniProt O00186: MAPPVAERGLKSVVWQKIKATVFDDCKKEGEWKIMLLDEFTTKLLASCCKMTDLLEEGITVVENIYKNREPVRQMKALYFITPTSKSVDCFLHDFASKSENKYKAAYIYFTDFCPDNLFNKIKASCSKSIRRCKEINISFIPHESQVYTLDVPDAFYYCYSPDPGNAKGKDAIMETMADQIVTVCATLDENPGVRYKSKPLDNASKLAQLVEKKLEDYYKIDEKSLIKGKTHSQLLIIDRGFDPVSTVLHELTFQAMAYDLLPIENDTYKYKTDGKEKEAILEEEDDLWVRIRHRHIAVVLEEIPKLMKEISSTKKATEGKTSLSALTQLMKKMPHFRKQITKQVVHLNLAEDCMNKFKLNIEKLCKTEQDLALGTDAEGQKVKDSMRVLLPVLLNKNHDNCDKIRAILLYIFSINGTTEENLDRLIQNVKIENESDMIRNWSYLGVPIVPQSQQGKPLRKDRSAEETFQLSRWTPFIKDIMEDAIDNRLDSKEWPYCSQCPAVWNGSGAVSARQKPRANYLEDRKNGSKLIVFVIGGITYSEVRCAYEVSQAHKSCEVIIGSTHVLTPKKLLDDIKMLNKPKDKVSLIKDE
UniProt P46977: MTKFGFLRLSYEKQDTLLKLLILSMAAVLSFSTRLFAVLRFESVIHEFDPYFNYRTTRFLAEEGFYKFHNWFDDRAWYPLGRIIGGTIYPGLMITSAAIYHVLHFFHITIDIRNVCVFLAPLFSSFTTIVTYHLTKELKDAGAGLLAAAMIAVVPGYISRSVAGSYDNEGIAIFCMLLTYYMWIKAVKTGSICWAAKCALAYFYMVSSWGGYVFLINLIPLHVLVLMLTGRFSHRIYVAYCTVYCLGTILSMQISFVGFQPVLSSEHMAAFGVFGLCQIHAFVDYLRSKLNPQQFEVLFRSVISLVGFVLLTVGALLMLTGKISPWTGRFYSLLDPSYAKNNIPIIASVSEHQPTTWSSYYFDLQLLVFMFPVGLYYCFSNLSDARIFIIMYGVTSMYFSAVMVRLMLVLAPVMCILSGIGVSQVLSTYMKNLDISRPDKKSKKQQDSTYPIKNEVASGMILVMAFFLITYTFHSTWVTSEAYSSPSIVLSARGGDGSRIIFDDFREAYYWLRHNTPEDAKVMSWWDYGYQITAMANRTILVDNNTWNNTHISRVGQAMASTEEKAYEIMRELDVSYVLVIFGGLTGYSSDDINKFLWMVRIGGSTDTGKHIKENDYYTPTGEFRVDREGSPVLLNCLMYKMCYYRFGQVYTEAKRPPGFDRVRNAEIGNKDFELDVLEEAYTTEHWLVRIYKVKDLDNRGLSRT
UniProt Q9P289: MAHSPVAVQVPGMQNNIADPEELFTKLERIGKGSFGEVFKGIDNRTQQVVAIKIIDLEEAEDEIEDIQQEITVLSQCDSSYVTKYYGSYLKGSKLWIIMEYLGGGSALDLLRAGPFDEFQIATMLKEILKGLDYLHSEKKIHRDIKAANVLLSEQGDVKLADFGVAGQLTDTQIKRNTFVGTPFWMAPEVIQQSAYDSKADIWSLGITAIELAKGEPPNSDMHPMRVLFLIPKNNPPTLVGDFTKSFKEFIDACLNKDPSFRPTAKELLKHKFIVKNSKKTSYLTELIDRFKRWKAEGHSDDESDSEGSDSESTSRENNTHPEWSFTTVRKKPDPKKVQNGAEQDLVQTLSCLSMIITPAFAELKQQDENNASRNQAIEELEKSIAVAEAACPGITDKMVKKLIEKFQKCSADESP
UniProt O43815: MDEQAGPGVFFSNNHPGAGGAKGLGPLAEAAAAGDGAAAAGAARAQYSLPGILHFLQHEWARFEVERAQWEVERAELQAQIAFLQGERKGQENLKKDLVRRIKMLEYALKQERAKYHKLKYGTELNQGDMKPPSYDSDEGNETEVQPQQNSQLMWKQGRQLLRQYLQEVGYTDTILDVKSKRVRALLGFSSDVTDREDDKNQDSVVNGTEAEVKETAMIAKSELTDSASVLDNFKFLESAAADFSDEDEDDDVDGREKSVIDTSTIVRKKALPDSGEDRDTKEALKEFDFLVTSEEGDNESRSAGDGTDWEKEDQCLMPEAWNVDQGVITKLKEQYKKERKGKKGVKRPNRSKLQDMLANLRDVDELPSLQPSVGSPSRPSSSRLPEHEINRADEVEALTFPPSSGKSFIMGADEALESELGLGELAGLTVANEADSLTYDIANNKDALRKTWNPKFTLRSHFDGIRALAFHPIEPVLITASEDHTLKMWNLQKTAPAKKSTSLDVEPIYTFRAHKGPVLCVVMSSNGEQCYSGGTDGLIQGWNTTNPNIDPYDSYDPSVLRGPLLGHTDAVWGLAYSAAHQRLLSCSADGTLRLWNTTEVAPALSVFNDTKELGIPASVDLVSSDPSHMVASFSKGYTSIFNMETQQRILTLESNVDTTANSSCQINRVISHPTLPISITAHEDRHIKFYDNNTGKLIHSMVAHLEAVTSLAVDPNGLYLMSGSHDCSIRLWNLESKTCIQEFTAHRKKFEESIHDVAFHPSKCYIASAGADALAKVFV
UniProt Q12962, whole entry, looked up: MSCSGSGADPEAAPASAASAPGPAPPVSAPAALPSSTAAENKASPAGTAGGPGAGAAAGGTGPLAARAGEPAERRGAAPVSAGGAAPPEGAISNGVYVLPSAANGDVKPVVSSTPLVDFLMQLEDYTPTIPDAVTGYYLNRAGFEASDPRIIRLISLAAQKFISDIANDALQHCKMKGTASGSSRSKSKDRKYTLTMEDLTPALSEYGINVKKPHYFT
UniProt Q9NRL3: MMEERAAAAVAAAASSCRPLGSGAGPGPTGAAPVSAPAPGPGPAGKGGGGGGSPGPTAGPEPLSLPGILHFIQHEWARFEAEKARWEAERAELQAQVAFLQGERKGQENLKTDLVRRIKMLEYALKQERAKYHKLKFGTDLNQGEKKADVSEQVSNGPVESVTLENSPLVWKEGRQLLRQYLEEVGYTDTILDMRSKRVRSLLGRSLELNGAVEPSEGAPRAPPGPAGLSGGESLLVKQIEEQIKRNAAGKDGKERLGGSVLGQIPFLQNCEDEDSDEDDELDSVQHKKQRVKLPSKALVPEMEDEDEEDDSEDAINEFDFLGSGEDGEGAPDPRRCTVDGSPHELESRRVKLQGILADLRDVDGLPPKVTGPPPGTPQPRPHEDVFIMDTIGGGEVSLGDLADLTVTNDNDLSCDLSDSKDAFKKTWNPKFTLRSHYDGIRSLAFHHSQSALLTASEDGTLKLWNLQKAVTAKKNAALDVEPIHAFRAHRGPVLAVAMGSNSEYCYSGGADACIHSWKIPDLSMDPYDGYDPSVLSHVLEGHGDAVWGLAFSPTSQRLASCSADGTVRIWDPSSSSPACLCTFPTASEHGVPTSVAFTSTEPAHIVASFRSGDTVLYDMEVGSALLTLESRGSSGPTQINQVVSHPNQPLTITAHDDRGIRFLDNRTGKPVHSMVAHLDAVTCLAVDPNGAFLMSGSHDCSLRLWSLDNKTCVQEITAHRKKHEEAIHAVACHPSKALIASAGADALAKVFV
UniProt O15056: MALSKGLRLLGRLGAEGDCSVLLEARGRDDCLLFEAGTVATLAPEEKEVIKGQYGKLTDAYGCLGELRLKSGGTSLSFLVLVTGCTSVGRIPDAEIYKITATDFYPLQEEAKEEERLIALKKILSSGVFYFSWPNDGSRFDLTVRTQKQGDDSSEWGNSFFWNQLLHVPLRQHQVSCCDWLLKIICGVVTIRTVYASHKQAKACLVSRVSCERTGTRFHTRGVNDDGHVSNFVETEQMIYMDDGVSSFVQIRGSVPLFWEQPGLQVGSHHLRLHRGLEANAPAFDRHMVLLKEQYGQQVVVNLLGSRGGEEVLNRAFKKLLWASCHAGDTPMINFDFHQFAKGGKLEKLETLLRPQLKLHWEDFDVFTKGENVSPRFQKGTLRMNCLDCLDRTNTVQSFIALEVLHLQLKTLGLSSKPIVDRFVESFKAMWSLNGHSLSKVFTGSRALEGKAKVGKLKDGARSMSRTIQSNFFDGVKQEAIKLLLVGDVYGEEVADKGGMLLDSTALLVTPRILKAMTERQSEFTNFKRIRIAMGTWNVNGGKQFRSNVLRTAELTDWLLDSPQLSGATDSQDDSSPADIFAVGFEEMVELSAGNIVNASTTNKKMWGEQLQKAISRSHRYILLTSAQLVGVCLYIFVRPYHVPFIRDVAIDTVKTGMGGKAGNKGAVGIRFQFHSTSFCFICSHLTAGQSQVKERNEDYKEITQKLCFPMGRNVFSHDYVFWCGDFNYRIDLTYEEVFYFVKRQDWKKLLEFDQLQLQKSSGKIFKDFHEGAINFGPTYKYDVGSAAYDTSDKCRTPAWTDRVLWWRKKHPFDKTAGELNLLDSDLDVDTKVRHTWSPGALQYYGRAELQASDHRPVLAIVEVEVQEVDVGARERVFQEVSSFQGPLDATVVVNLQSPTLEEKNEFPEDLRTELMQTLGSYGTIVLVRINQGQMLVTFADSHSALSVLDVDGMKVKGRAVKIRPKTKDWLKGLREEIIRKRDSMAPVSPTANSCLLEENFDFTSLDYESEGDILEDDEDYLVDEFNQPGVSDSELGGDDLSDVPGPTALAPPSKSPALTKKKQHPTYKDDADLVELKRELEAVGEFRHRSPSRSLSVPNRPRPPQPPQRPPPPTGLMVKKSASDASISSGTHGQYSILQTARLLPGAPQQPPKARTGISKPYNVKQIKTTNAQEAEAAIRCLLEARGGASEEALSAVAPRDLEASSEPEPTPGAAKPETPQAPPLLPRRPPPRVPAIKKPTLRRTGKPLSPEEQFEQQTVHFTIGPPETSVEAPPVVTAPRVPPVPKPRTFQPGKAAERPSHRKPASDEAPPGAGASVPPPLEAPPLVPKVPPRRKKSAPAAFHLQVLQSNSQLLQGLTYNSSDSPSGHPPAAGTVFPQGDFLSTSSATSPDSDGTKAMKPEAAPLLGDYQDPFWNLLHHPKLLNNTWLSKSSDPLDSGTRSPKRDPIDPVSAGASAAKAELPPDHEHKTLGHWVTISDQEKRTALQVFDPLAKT

Assays:
Assay in all cases: log2 fold change, soluble protein after heating vs DMSO (PISA); higher = thermal stabilisation; K562 lysate, 10 uM; active = over 0.2 and 3.5 SD of the protein, either way, in both replicates (recomputed)
[1] = compound: C1=CC=C(C=C1)[C@H](COC2=CC3=C(C=C2)NC(=O)N3)NC(=O)C4=CC=CN(C4=O)CC5=CC(=C(C=C5)F)F
Method in brief: (§1)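 To prepare the extract, K562 pellets were dounce-homogenised in PBS pH 7.4 with 1 mM MgCl2, giving crude material at 1 mg/mL protein. This was treated with 10 μM compound for 30 min, then heated in aliquots for 3 min over 48°C-58°C before pooling and addition of NP-40 to 0.5% at 4°C. Centrifugation at 21,000xg for 90 min left soluble protein in the supernatant, which TMTpro 16plex LC-MS/MS quantified with equalised channel sums. Results are log-two fold changes in thermal stability compared with solvent controls, from duplicates.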

[2] = compound: CC1=C(SC2=C1C(=N[C@H](C3=NN=C(N32)C)CC(=O)N)C4=CC=C(C=C4)Cl)C
Method in brief: as §1

[3] = compound: CC1=C2C(=CC=C1)N=C(N(C2=O)C3=CC=CC=C3C)CN4C=NC5=C(N=CN=C54)N
Method in brief: as §1

[4] = compound: Cc1sc2c(c1C)C(c1ccc(Cl)cc1)=N[C@@H](CC(=O)OC(C)(C)C)c1nnc(C)n1-2
Method in brief: as §1

[5] = compound: c1ccc([C@@H]2C[C@H]2NC2CCNCC2)cc1
Method in brief: as §1

Measured: log2 fold change

SYNJ2BP (UniProt P57105)
inactive: [1] 0.125 | [2] -0.294 | [3] -0.007 | [4] 0.026

TAF2 (UniProt Q6P1X5)
inactive: [1] -0.104 | [2] 0.006 | [3] -0.06 | [4] 0.068 | [5] 0.035

SUGT1 (UniProt Q9Y2Z0)
inactive: [1] 0.044 | [2] -0.014 | [3] -0.037 | [4] -0.007 | [5] 0.077

Two neighbouring records already listed:
TAF2 (UniProt Q6P1X5)
inactive: [1] -0.104 | [2] 0.006 | [3] -0.06 | [4] 0.068 | [5] 0.035

SUGT1 (UniProt Q9Y2Z0)
inactive: [1] 0.044 | [2] -0.014 | [3] -0.037 | [4] -0.007 | [5] 0.077

Continued.

STXBP3 (UniProt O00186)
inactive: [1] -0.03 | [2] -0.046 | [3] 0.011 | [4] -0.026 | [5] 0.015

STT3A (UniProt P46977)
inactive: [1] -0.001 | [2] 0.004 | [3] 0.028 | [4] -0.019 | [5] -0.026

STX5 (UniProt Q13190)
inactive: [1] -0.04 | [2] 0.036 | [3] -0.024 | [4] 0.018 | [5] -0.001

STRIP1 (UniProt Q5VSL9)
inactive: [1] 0.006 | [2] 0.029 | [3] -0.021 | [4] 0.029 | [5] 0.03

STK26 (UniProt Q9P289)
inactive: [1] -0.015 | [2] -0.015 | [3] 0.008 | [4] -0.015 | [5] 0.02

SUPT20H isoform 3 (UniProt Q8NEM7)
inactive: [1] -0.111 | [2] 0.031 | [3] 0.008 | [4] -0.145

STRN (UniProt O43815)
inactive: [1] 0.009 | [2] 0.012 | [3] 0.006 | [4] 0.017 | [5] 0.022

TAF10 (UniProt Q12962)
inactive: [1] 0.014 | [2] -0.035 | [3] -0.079 | [4] 0.041 | [5] 0.045

STMN3 (UniProt Q9NZ72)
inactive: [1] 0.046 | [2] -0.053 | [3] 0.065 | [4] -0.061

TAF5 (UniProt Q15542)
inactive: [1] 0.044 | [2] 0.118 | [3] -0.04 | [4] 0.073 | [5] 0.06

STRN4 isoform 3 (UniProt Q9NRL3)
inactive: [1] 0.069 | [2] -0.013 | [3] -0.002 | [4] 0.036 | [5] -0.005

SYNE1 (UniProt Q8NF91)
inactive: [1] 0.041 | [2] -0.002 | [3] 0.091 | [4] -0.1 | [5] -0.056

SUPT5H isoform 2 (UniProt O00267)
inactive: [1] -0.225 | [2] 0.023 | [3] 0.073 | [4] -0.065

SYNJ2 (UniProt O15056)
inactive: [1] -0.051 | [2] -0.115 | [3] 0.115 | [4] -0.048 | [5] 0.031
